The text below walks through data of article doi:10.1101/2021.10.12.462922 (bioRxiv, 2021).

Results are given in words; binding and its absence hold for the method and conditions named. Some binding calls cover weakened binding; strength is not graded here.

For the assay, the target named is T1, HMG20A, human, recombinant from insect cells (human), Q9NP66.
T1 chain: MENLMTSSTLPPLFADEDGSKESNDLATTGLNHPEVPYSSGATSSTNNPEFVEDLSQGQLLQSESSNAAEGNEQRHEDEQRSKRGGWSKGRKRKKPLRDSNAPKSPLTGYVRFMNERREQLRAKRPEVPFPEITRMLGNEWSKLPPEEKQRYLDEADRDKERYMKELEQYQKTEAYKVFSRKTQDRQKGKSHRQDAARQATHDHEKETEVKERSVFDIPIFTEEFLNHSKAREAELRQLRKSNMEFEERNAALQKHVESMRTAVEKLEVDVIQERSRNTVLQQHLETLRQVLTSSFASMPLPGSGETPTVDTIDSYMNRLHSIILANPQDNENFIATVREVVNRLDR
The assay can be described thus: cross-linking. The conditions noted are these: remark: other sources report otherwise.

B1: HMG20A, human, recombinant from insect cells, Q9NP66 1-347 (protein)
chain: T1 chain
Take B1: the binding result is reported as “binds”.
